Test results from patent US8541617B2, “Cycloalkylphenyl substituted cyclic ketoenols” (Bayer Cropscience AG, priority 2006, dated 2013).
Some results were stated once for a whole list of compounds, not compound by compound.

What was measured:
Format in all cases: in vivo
[1] = tested on: greenhouse red spider mite (Tetranychus urticae); test: Example F: Tetranychus test, OP-resistant (TETRUR spray treatment); conditions: bean leaf discs
[2] = tested on: green peach aphid (Myzus persicae); test: Example E: Myzus test (MYZUPE spray treatment); conditions: application rate 500 g/ha, Chinese cabbage discs
[3] = tested on: Setaria viridis; test: Example A: Herbicidal pre-emergence action; conditions: application rate 320 g/ha, visual assessment after 3 weeks
[4] = tested on: larva of the mustard beetle (Phaedon cochleariae); test: Example D: Phaedon test (spray treatment); conditions: application rate 500 g/ha, Chinese cabbage discs
[5] = tested on: Lolium multiflorum; test: Example A: Herbicidal pre-emergence action; conditions: application rate 320 g/ha, visual assessment after 3 weeks
[6] = tested on: Setaria viridis; test: Example B: Herbicidal post-emergence action; conditions: application rate 80 g/ha, rated after about 3 weeks
Protocol: (§1) Herbicidal Post-Emergence Action
(§2) Seeds of monocotylos and dicotylos weed and crop plants are placed in sandy lawn in wood fibre pots, covered with soil and cultivated in a greenhouse under good growth conditions. Two to three weeks after sowing, the test plants are treated at the one-leaf stage. The test compounds, formulated as wettable powders (WP) or as emulsion concentrates (EC), are then, as an aqueous suspension with a water application rate of 800 l/ha (converted), with 0.2% of wetting agent added, sprayed onto the green parts of the plants. After the test plants have been kept in the greenhouse under optimum growth conditions for about 3 weeks, the effect of the preparations is rated visually in comparison to untreated controls (herbicidal effect in percent (%): 100% effect=the plants have died, 0% effect=like control plants).

[7] = tested on: Lolium multiflorum; test: Example B: Herbicidal post-emergence action; conditions: Lolium multiforum; application rate 80 g/ha; rated after about 3 weeks
Protocol: as §1, §2

[8] = tested on: Lucilia cuprina larva; test: Example I: Lucilia cuprina test (LUCICU); conditions: application rate 100 ppm; treated horsemeat
[9] = tested on: Boophilus microplus; test: Example J: Boophilus microplus test (BOOPMI injection); conditions: application rate 20 μg/animal; injection into the abdomen
[10] = tested on: Meloidogyne incognita; test: Example H: Meloidogyne test (MELGIN spray treatment); conditions: application rate 20 ppm; lettuce

SMILES	efficacy (spider mites killed) ([1]; application rate 100 g/ha) [%]	efficacy (aphids killed) [2] [%]	herbicidal effect (efficacy), pre-emergence [3] [%]	efficacy (beetle larva killed) [4] [%]	herbicidal effect (efficacy), pre-emergence [5] [%]	herbicidal effect (efficacy), post-emergence [6] [%]	herbicidal effect (efficacy), post-emergence [7] [%]	efficacy (kill of larva) [8] [%]	effect (no fertile eggs laid) [9] [%]	efficacy (nematicidal action by gall formation) [10] [%]	efficacy (spider mites killed) ([1]; application rate 20 g/ha (marked *)) [%]
CCOC(=O)OC1=C(c2c(Cl)cc(C)cc2C2CC2)C(=O)NC12CCC(OC)CC2 (single isomer, unassigned) [Example I-1-c-9]	≥ 80	≥ 90	–	–	–	–	–	–	–	–	–
CCOC(=O)OC1=C(c2c(Cl)cc(C)cc2C2CC2)C(=O)NC12CCCC(OCC)C2 (single isomer, unassigned) [Example I-1-c-12]	≥ 80	–	≥ 80	≥ 80	≥ 80	–	–	–	–	–	–
CCOC(=O)OC1=C(c2c(C)cc(C)cc2C2CC2)C(=O)NC12CCCC(OCC)C2 (single isomer, unassigned) [Example I-1-c-14]	≥ 80	–	–	–	–	–	–	–	–	–	–
CCOC1CCCC2(C1)NC(=O)C(c1c(Cl)cc(C)cc1C1CC1)=C2OC(=O)OC (single isomer, unassigned) [Example I-1-c-15]	≥ 80	≥ 90	≥ 80	–	≥ 80	≥ 80	≥ 80	–	–	–	–
CCCCOC1CCCC2(C1)NC(=O)C(c1c(C)cc(C)cc1C1CC1)=C2OC(=O)OCC (single isomer, unassigned) [Example I-1-c-16]	≥ 80	–	≥ 80	–	≥ 80	–	–	–	–	–	–
CCOC(=O)OC1=C(c2c(C)cc(Cl)cc2C2CC2)C(=O)NC12CCC(OC)CC2 (single isomer, unassigned) [Example I-1-c-20]	≥ 80	–	–	≥ 80	–	–	–	–	–	–	–
COC1CCC2(CC1)NC(=O)C(c1c(C)cc(C3CC3)cc1C)=C2O (centres unmarked) [Example I-1-a-4]	≥ 80	≥ 90	–	≥ 80	–	–	–	≥ 80	≥ 80	–	–
CCc1cc(C)cc(C2CC2)c1C1=C(O)C(C)(C)NC1=O [Example I-1-a-5]	≥ 80	–	≥ 80	–	≥ 80	≥ 80	≥ 80	–	–	–	–
CCc1cc(C)cc(C2CC2)c1C1=C(O)C2(CCC(OC)CC2)NC1=O (centres unmarked) [Example I-1-a-6]	≥ 80	≥ 90	≥ 80	≥ 80	≥ 80	≥ 80	≥ 80	–	≥ 80	–	–
COC1CCC2(CC1)NC(=O)C(c1c(C)cc(C)cc1C1CC1)=C2O (centres unmarked) [Example I-1-a-7]	≥ 80	≥ 90	≥ 80	≥ 80	≥ 80	≥ 80	≥ 80	–	–	≥ 80	–
Cc1cc(C)c(C2=C(O)C(C)(C)NC2=O)c(C2CC2)c1 [Example I-1-a-8]	≥ 80	–	≥ 80	–	≥ 80	≥ 80	≥ 80	–	–	–	–
CCOC1CCCC2(CC1)NC(=O)C(c1c(C)cc(C)cc1C1CC1)=C2O (centres unmarked) [Example I-1-a-9]	≥ 80	≥ 90	–	–	–	–	–	–	–	–	–
Cc1cc(Cl)c(C2=C(O)C(C)(C)NC2=O)c(C2CC2)c1 [Example I-1-a-10]	≥ 80	–	≥ 80	≥ 80	≥ 80	≥ 80	≥ 80	–	–	–	–
COC1CCC2(CC1)NC(=O)C(c1c(Cl)cc(C)cc1C1CC1)=C2O (centres unmarked) [Example I-1-a-11]	≥ 80	≥ 90	≥ 80	≥ 80	≥ 80	≥ 80	≥ 80	–	–	–	–
CCOC1CCCC2(C1)NC(=O)C(c1c(Cl)cc(C)cc1C1CC1)=C2O (centres unmarked) [Example I-1-a-14]	≥ 80	≥ 90	≥ 80	≥ 80	≥ 80	≥ 80	≥ 80	–	–	–	–
CCCCOC1CCCC2(C1)NC(=O)C(c1c(C)cc(C)cc1C1CC1)=C2O (centres unmarked) [Example I-1-a-17]	≥ 80	≥ 90	≥ 80	–	≥ 80	≥ 80	≥ 80	–	–	–	–
Cc1cc(C2CC2)c(C2=C(O)C(C)(C)NC2=O)c(C2CC2)c1 [Example I-1-a-19]	≥ 80	–	≥ 80	–	≥ 80	–	–	–	–	–	–
COC1CCC2(CC1)NC(=O)C(c1c(C)cc(Cl)cc1C1CC1)=C2O (centres unmarked) [Example I-1-a-20]	≥ 80	≥ 90	–	–	–	–	–	–	–	–	–
COC1CCC2(C1)NC(=O)C(c1c(C)cc(C3CC3)cc1C)=C2O (centres unmarked) [Example I-1-a-25]	–	–	–	≥ 80	–	–	–	–	–	–	≥ 80
COC1CCC2(CC1)NC(=O)C(c1c(C)cc(C3CC3)cc1C)=C2OC(=O)C(C)C (centres unmarked) [Example I-1-b-4]	≥ 80	≥ 90	–	–	–	–	–	≥ 80	≥ 80	–	–
Cc1cc(C)c(C2=C(OC(=O)c3ccccc3Cl)C(C)(C)NC2=O)c(C2CC2)c1 [Example I-1-b-8]	≥ 80	–	–	–	–	–	–	–	–	–	–
Cc1cc(C2CC2)c(C2=C(OC(=O)C(C)C)C(C)(C)NC2=O)c(C2CC2)c1 [Example I-1-b-9]	≥ 80	–	≥ 80	–	≥ 80	≥ 80	≥ 80	–	–	–	–
Cc1cc(C2CC2)cc(C2CC2)c1C1=C(OC(=O)C(C)C)C(C)(C)NC1=O [Example I-1-b-13]	≥ 80	≥ 90	–	≥ 80	–	–	–	–	–	–	–
CCc1cc(C)cc(C2CC2)c1C1=C(OC(=O)C(C)C)C2CCCN2C1=O (centres unmarked) [Example I-1-b-15]	≥ 80	–	–	–	–	–	–	–	–	–	–
CCOC(=O)OC1=C(c2c(C3CC3)cc(C)cc2C2CC2)C(=O)NC1(C)C [Example I-1-c-13]	≥ 80	–	≥ 80	–	≥ 80	≥ 80	≥ 80	–	–	–	–
CCc1cc(C)cc(C2CC2)c1C1=C(OC(=O)OC)C(C)(C)NC1=O [Example I-1-c-25]	≥ 80	–	–	–	–	–	–	–	–	–	–
